Results: the supplement of paper PMC10849652
The other results are listed elsewhere or left out.

Chains of the proteins cited; added tags and fusions are not shown. Lines headed by an entry give the natural chain unless they say otherwise; changes in a name come on top.
UniProt P51571: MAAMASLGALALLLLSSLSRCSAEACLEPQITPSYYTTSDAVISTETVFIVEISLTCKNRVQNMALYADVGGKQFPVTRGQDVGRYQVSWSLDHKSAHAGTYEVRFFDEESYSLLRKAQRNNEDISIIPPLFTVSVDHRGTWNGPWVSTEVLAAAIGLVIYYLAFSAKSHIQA
UniProt Q15005: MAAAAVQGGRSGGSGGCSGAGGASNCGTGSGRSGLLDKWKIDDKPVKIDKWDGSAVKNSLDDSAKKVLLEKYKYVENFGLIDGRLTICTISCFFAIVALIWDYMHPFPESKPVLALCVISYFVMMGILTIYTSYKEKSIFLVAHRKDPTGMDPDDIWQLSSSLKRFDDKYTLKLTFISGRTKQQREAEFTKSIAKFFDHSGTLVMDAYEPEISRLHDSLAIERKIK
UniProt Q9C004: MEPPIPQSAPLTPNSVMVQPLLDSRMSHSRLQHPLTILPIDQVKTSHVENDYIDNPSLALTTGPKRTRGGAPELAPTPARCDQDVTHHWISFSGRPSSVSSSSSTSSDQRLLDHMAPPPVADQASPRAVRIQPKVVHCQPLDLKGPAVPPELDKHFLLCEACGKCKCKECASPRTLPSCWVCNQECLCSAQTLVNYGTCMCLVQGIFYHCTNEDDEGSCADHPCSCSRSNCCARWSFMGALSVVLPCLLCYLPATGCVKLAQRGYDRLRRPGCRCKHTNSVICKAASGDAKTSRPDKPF
UniProt Q04837: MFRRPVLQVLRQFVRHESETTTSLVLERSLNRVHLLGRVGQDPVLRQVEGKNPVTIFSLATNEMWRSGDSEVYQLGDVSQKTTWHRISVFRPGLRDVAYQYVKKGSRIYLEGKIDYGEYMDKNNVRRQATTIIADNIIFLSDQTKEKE
UniProt O75494: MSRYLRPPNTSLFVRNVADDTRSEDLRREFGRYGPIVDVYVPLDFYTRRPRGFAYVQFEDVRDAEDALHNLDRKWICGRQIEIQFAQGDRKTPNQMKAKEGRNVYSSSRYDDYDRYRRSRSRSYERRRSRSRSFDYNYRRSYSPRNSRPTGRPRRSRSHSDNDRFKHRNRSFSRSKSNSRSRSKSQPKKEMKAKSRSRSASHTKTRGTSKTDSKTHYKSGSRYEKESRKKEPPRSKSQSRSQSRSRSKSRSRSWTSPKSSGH
UniProt P37108: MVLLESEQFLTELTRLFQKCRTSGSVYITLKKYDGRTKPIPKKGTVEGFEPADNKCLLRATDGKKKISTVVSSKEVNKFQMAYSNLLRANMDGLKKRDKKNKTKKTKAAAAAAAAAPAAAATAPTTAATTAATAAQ
UniProt Q01082, whole entry, looked up: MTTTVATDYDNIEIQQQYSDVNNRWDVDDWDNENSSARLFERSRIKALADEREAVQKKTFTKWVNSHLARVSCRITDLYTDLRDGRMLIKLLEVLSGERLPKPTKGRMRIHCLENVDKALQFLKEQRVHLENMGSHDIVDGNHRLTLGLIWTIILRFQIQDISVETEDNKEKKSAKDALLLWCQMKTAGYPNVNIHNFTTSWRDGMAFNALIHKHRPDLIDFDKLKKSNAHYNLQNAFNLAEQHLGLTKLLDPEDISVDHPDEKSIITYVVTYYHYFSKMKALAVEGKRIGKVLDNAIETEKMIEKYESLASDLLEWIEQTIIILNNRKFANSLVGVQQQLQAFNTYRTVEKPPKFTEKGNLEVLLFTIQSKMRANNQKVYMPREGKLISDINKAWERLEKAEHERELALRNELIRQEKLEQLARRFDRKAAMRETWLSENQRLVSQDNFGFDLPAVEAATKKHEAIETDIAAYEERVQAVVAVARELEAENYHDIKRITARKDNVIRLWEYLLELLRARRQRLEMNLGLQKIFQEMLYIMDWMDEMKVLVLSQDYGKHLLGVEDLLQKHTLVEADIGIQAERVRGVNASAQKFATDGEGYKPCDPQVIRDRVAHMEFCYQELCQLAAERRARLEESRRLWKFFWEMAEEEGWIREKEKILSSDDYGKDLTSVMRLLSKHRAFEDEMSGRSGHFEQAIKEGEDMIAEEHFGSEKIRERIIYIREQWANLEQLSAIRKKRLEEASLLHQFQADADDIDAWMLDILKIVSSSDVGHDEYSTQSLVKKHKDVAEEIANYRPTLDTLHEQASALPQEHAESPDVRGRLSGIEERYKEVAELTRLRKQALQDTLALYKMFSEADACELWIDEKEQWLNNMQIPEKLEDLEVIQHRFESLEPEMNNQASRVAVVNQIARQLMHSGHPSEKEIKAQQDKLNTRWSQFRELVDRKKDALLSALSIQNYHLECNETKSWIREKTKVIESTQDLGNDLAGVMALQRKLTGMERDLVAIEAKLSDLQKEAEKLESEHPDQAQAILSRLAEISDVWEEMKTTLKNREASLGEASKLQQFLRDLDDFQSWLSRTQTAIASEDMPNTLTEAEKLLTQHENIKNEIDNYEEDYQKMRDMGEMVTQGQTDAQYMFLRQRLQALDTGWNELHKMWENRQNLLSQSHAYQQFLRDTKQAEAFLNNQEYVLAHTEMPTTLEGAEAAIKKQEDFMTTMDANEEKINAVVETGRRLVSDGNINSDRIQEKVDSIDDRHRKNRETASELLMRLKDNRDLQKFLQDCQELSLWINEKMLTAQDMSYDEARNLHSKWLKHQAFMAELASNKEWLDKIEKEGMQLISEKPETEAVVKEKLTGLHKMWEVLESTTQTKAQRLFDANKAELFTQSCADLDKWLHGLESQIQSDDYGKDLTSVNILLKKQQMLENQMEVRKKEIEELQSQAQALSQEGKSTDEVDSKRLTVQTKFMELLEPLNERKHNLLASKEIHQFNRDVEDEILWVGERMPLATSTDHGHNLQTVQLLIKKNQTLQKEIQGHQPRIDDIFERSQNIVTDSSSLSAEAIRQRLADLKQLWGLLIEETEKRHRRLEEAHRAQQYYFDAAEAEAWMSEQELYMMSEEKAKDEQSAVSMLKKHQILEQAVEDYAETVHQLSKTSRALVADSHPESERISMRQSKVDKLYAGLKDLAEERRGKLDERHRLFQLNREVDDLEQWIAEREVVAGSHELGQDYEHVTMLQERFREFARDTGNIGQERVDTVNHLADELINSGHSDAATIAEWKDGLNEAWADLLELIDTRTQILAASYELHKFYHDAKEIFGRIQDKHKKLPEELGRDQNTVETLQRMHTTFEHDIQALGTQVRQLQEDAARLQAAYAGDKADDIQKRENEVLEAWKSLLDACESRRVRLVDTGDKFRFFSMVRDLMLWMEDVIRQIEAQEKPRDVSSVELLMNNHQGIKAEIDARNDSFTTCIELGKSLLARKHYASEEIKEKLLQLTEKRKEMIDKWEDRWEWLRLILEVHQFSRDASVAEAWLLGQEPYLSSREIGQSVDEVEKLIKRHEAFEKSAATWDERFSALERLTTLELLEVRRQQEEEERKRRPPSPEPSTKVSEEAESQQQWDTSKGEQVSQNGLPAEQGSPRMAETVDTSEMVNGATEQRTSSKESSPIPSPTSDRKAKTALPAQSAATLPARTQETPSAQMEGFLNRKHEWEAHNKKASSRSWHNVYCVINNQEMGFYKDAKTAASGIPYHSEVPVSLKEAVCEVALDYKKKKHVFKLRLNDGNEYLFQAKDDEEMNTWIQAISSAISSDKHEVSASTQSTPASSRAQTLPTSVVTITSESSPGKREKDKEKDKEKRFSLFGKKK
UniProt O15269: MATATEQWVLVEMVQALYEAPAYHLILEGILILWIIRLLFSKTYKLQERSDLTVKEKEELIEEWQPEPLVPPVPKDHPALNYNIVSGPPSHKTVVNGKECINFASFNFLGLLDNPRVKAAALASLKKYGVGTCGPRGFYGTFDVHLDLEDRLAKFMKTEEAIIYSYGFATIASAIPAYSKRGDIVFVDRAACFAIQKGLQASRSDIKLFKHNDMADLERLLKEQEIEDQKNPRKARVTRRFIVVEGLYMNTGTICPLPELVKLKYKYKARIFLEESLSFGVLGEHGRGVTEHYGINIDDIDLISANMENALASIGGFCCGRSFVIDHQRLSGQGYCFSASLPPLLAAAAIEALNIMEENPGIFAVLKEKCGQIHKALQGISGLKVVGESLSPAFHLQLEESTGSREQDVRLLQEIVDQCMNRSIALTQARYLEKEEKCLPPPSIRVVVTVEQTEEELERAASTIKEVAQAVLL
UniProt Q16385, whole entry, looked up: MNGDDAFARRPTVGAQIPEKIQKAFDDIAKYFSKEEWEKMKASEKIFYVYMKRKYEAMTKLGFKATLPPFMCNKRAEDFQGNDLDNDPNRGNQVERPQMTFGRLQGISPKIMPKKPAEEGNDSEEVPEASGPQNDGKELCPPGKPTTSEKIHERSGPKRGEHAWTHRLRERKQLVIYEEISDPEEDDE
UniProt O15270: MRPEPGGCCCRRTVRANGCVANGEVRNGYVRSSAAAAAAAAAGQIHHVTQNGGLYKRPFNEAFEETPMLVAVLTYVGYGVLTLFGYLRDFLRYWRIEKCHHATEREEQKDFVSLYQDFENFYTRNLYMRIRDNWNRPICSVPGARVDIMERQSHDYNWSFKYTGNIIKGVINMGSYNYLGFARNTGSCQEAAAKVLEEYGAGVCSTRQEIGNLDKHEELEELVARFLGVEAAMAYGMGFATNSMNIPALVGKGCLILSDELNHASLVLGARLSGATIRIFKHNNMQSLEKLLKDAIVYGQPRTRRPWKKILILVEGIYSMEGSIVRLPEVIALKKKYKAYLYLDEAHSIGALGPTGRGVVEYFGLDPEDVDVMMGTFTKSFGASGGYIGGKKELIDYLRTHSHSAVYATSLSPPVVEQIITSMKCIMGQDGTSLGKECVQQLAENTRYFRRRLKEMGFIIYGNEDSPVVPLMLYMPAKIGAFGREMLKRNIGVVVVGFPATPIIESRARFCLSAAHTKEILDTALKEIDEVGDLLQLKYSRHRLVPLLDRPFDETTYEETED
UniProt P49458: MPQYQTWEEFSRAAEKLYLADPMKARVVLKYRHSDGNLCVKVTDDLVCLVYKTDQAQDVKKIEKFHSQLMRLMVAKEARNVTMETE
UniProt Q9H2V7: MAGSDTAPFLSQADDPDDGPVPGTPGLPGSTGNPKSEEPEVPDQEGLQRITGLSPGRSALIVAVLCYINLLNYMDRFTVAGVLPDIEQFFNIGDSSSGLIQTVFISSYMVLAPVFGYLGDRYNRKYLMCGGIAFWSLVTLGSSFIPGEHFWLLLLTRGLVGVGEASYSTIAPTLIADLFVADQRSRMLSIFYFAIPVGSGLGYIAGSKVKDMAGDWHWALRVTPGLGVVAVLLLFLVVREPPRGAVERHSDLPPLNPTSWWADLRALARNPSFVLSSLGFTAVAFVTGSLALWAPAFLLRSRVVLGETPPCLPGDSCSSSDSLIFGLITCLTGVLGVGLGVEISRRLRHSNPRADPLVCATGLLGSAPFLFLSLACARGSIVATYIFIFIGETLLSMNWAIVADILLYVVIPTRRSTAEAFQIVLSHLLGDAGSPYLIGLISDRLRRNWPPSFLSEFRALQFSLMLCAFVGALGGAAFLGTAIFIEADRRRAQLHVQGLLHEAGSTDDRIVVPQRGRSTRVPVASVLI
UniProt Q9BWG4: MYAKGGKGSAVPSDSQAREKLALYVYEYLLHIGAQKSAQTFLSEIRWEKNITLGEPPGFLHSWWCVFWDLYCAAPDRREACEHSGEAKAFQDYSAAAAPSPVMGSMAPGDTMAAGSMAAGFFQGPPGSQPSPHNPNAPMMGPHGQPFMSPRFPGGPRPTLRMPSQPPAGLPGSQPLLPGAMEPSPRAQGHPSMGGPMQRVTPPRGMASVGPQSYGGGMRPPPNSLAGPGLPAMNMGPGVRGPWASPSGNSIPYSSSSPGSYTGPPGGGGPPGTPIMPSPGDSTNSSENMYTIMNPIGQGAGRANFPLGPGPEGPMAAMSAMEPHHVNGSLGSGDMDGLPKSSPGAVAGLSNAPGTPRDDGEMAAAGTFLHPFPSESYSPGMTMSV
UniProt Q9BVQ7: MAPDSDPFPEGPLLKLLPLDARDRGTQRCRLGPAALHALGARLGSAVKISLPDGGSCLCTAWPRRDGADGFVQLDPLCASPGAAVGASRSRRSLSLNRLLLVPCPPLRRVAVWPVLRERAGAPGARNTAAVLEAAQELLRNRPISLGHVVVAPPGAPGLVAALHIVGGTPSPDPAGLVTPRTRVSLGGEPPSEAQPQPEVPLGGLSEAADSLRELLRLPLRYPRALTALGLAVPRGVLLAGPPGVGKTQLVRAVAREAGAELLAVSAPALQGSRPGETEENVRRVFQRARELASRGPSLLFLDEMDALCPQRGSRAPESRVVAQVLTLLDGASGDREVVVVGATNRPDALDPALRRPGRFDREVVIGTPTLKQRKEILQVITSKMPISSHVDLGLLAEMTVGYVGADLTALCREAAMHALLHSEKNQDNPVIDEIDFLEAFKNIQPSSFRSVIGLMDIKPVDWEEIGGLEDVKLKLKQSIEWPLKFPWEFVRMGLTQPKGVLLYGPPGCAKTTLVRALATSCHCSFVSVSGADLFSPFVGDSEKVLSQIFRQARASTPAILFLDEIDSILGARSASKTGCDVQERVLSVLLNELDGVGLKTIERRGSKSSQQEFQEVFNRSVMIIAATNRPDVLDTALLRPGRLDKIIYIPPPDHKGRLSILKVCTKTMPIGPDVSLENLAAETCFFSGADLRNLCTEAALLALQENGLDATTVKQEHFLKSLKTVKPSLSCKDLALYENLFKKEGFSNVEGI

Tests used:
Test in all cases: log2 fold change, soluble protein after heating vs DMSO (PISA); higher = thermal stabilisation; K562 lysate, 10 uM; active = over 0.2 and 3.5 SD of the protein, either way, in both replicates (recomputed)
[1] = compound: C1=CC=C(C=C1)[C@H](COC2=CC3=C(C=C2)NC(=O)N3)NC(=O)C4=CC=CN(C4=O)CC5=CC(=C(C=C5)F)F
In short: (§1)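 Following dounce homogenisation of K562 pellets in PBS pH 7.4 with 1 mM MgCl2, crude extract at 1 mg/mL protein was incubated for 30 min with 10 μM compound. Aliquots were then heated for 3 min over 48°C-58°C and pooled, NP-40 was added to 0.5% at 4°C, and soluble protein was recovered as the supernatant at 21,000xg for 90 min. Channel-sum-equalised TMTpro 16plex LC-MS/MS quantified this protein. Each value, from duplicates, is a log-two fold change in thermal stability relative to solvent controls.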

[2] = compound: CC1=C(SC2=C1C(=N[C@H](C3=NN=C(N32)C)CC(=O)N)C4=CC=C(C=C4)Cl)C
In short: as §1

[3] = compound: CC1=C2C(=CC=C1)N=C(N(C2=O)C3=CC=CC=C3C)CN4C=NC5=C(N=CN=C54)N
In short: as §1

[4] = compound: Cc1sc2c(c1C)C(c1ccc(Cl)cc1)=N[C@@H](CC(=O)OC(C)(C)C)c1nnc(C)n1-2
In short: as §1

[5] = compound: c1ccc([C@@H]2C[C@H]2NC2CCNCC2)cc1
In short: as §1

Measured: log2 fold change

SRGAP2 (UniProt O75044)
inactive: [1] 0.028 | [2] -0.016 | [3] -0.006 | [4] 0.01 | [5] 0.029

STAT1 (UniProt P42224)
inactive: [1] -0.013 | [2] -0.007 | [3] -0.007 | [4] -0.034 | [5] 0.013

STEAP3 isoform 2 (UniProt Q658P3)
inactive: [1] 0.025 | [2] -0.028 | [3] 0.079 | [4] 0.114 | [5] -0.055

SPTB isoform 2 (UniProt P11277)
inactive: [1] -0.019 | [2] -0.054 | [3] 0.04 | [4] 0.005 | [5] 0.026

STAT5A (UniProt P42229)
inactive: [1] -0.012 | [2] 0.035 | [3] 0.008 | [4] 0.037 | [5] 0.025

SSR4 (UniProt P51571)
inactive: [1] -0.027 | [2] 0.003 | [3] -0.004 | [4] -0.001 | [5] 0.015

STARD10 (UniProt Q9Y365)
inactive: [1] 0.048 | [2] 0.019 | [3] -0.091 | [4] -0.039 | [5] 0.106

SPG11 (UniProt Q96JI7)
inactive: [1] -0.22 | [2] -0.253 | [3] 0.015 | [4] 0.067 | [5] 0.006

STIL isoform 2 (UniProt Q15468)
inactive: [1] 0.014 | [2] -0.037 | [3] 0.069 | [4] -0.046 | [5] -0.049

STAT5B (UniProt P51692)
inactive: [1] 0.004 | [2] 0.008 | [3] -0.01 | [4] 0.106 | [5] 0.053

SRP54 (UniProt P61011)
inactive: [1] 0.023 | [2] 0.001 | [3] 0.03 | [4] 0.06 | [5] 0.049

SPIRE1 (UniProt Q08AE8)
inactive: [1] -0.008 | [2] 0.031 | [3] -0.006 | [4] -0.053 | [5] -0.212

SPCS2 (UniProt Q15005)
inactive: [1] -0.018 | [2] -0.037 | [3] 0 | [4] -0.001 | [5] 0.087

SPRY4 (UniProt Q9C004)
inactive: [1] 0.051 | [2] -0.088 | [3] -0.001 | [4] -0.031 | [5] 0.05

11 successive records out of the list so far:
STEAP3 isoform 2 (UniProt Q658P3)
inactive: [1] 0.025 | [2] -0.028 | [3] 0.079 | [4] 0.114 | [5] -0.055

SPTB isoform 2 (UniProt P11277)
inactive: [1] -0.019 | [2] -0.054 | [3] 0.04 | [4] 0.005 | [5] 0.026

STAT5A (UniProt P42229)
inactive: [1] -0.012 | [2] 0.035 | [3] 0.008 | [4] 0.037 | [5] 0.025

SSR4 (UniProt P51571)
inactive: [1] -0.027 | [2] 0.003 | [3] -0.004 | [4] -0.001 | [5] 0.015

STARD10 (UniProt Q9Y365)
inactive: [1] 0.048 | [2] 0.019 | [3] -0.091 | [4] -0.039 | [5] 0.106

SPG11 (UniProt Q96JI7)
inactive: [1] -0.22 | [2] -0.253 | [3] 0.015 | [4] 0.067 | [5] 0.006

STIL isoform 2 (UniProt Q15468)
inactive: [1] 0.014 | [2] -0.037 | [3] 0.069 | [4] -0.046 | [5] -0.049

STAT5B (UniProt P51692)
inactive: [1] 0.004 | [2] 0.008 | [3] -0.01 | [4] 0.106 | [5] 0.053

SRP54 (UniProt P61011)
inactive: [1] 0.023 | [2] 0.001 | [3] 0.03 | [4] 0.06 | [5] 0.049

SPIRE1 (UniProt Q08AE8)
inactive: [1] -0.008 | [2] 0.031 | [3] -0.006 | [4] -0.053 | [5] -0.212

SPCS2 (UniProt Q15005)
inactive: [1] -0.018 | [2] -0.037 | [3] 0 | [4] -0.001 | [5] 0.087

Continued:

STAT6 (UniProt P42226)
inactive: [1] -0.034 | [2] 0.03 | [3] 0.003 | [4] -0.015 | [5] -0.031

SSBP1 (UniProt Q04837)
inactive: [1] 0.046 | [2] -0.008 | [3] 0.003 | [4] -0.04 | [5] -0.036

SRSF10 (UniProt O75494)
inactive: [1] 0 | [2] 0.01 | [3] 0.005 | [4] 0.018 | [5] -0.022

SRSF5 (UniProt Q13243)
inactive: [1] 0.01 | [2] 0.031 | [3] 0.004 | [4] 0.008 | [5] -0.028

SRP14 (UniProt P37108)
inactive: [1] 0.018 | [2] 0.013 | [3] -0.017 | [4] -0.025 | [5] -0.06

SPTBN1 (UniProt Q01082)
inactive: [1] -0.022 | [2] 0.024 | [3] -0.006 | [4] 0.001 | [5] 0.021

SPART (UniProt Q8N0X7)
inactive: [1] 0.072 | [2] 0.027 | [3] -0.012 | [4] 0.092 | [5] -0.006

ST3GAL4 isoform 4 (UniProt Q11206)
inactive: [1] -0.352 | [2] 0.197 | [3] -0.181 | [4] -0.081 | [5] 0.329

SPG7 (UniProt Q9UQ90)
inactive: [1] -0.001 | [2] 0.004 | [3] 0.072 | [4] -0.042 | [5] 0.012

SPTA1 (UniProt P02549)
inactive: [1] -0.031 | [2] -0.002 | [3] 0.025 | [4] 0.019 | [5] 0.042

ST6GAL1 (UniProt P15907)
inactive: [1] 0.049 | [2] -0.018 | [3] 0.024 | [4] -0.027 | [5] 0.034

SRRT (UniProt Q9BXP5)
inactive: [1] -0.003 | [2] 0.02 | [3] -0.002 | [4] 0.021 | [5] 0.068

ST3GAL2 (UniProt Q16842)
inactive: [1] -0.034 | [2] 0.093 | [3] -0.035 | [4] -0.077 | [5] -0.012

STAM (UniProt Q92783)
inactive: [1] 0.028 | [2] 0.019 | [3] -0.002 | [4] 0.015 | [5] 0.016

SRSF6 (UniProt Q13247)
inactive: [1] -0.003 | [2] -0.019 | [3] -0.011 | [4] -0.026 | [5] 0.084

SRCAP (UniProt Q6ZRS2)
inactive: [1] 0.057 | [2] -0.04 | [3] 0.049 | [4] 0.004 | [5] 0.042

SPTLC1 (UniProt O15269)
inactive: [1] -0.019 | [2] 0.017 | [3] 0.051 | [4] -0.029 | [5] -0.029

SPPL2B (UniProt Q8TCT7)
inactive: [1] -0.057 | [2] 0.014 | [3] 0.073 | [4] -0.072 | [5] 0.023

ST13 (UniProt P50502)
inactive: [1] 0.021 | [2] 0.029 | [3] -0.019 | [4] 0.009 | [5] 0.023

SRP68 (UniProt Q9UHB9)
inactive: [1] 0.01 | [2] -0.008 | [3] 0.002 | [4] 0.029 | [5] 0.141

SRA1 (UniProt Q9HD15)
inactive: [1] -0.007 | [2] 0.022 | [3] -0.013 | [4] -0.088 | [5] -0.025

SPTBN2 (UniProt O15020)
inactive: [1] 0.003 | [2] 0.013 | [3] 0.015 | [4] 0.029 | [5] -0.032

SRSF3 (UniProt P84103)
inactive: [1] 0.049 | [2] -0.047 | [3] -0.016 | [4] -0.015 | [5] 0.03

STAMBP (UniProt O95630)
inactive: [1] 0.002 | [2] -0.021 | [3] 0.012 | [4] 0.011 | [5] 0.036

SPECC1L (UniProt Q69YQ0)
inactive: [1] -0.043 | [2] 0.123 | [3] 0.052 | [4] -0.027 | [5] 0.07

SSX2 (UniProt Q16385)
inactive: [1] 0.035 | [2] -0.036 | [3] 0.032 | [4] 0.035 | [5] -0.032

SPATA7 (UniProt Q9P0W8)
inactive: [1] -0.001 | [2] -0.031 | [3] 0.13 | [5] -0.605

SPTLC2 (UniProt O15270)
inactive: [1] 0.011 | [2] -0.062 | [3] 0.015 | [4] -0.017 | [5] -0.028

SRM (UniProt P19623)
inactive: [1] -0.007 | [2] 0.029 | [3] 0.001 | [4] 0.009 | [5] 0.039

SSU72 (UniProt Q9NP77)
inactive: [1] 0.014 | [2] 0.017 | [3] 0.078 | [4] 0.004 | [5] -0.17

SRP9 (UniProt P49458)
inactive: [1] 0.066 | [2] 0 | [3] -0.029 | [4] 0.049 | [5] -0.019

ST7 (UniProt Q9NRC1)
inactive: [1] -0.069 | [2] -0.041 | [3] 0.041 | [4] -0.097 | [5] -0.007

SPATS2 (UniProt Q86XZ4)
inactive: [1] 0.042 | [2] -0.035 | [3] 0.061 | [4] -0.014 | [5] -0.07

SREBF2 (UniProt Q12772)
inactive: [1] -0.061 | [2] 0.039 | [3] 0.163 | [4] -0.086 | [5] -0.041

STAU2 (UniProt Q9NUL3)
inactive: [1] 0.007 | [2] 0.003 | [3] 0.065 | [4] -0.002 | [5] 0.007

SPNS1 (UniProt Q9H2V7)
inactive: [1] 0.05 | [2] 0.017 | [3] 0.023 | [4] -0.076 | [5] -0.019

SSBP4 (UniProt Q9BWG4)
inactive: [1] 0.078 | [2] -0.089 | [3] -0.062 | [5] -0.083

SPATA5L1 (UniProt Q9BVQ7)
inactive: [1] -0.019 | [2] 0.036 | [3] 0.006 | [4] -0.007 | [5] -0.039

SRI (UniProt P30626)
inactive: [1] 0.019 | [2] -0.049 | [3] 0.013 | [4] -0.024 | [5] 0.058
